Experimental data as given in patent US20160317671A1.
These are yes or no findings as the source states them, for the method shown. Binding seen in cells or lysates may run through a third protein. Some results given as binding are weak or reduced against the parent protein; the word gives no strength.

Chains of the proteins cited; added tags and fusions are not shown. Lines headed by an entry give the natural chain unless they say otherwise; changes in a name come on top.
UniProt P40763: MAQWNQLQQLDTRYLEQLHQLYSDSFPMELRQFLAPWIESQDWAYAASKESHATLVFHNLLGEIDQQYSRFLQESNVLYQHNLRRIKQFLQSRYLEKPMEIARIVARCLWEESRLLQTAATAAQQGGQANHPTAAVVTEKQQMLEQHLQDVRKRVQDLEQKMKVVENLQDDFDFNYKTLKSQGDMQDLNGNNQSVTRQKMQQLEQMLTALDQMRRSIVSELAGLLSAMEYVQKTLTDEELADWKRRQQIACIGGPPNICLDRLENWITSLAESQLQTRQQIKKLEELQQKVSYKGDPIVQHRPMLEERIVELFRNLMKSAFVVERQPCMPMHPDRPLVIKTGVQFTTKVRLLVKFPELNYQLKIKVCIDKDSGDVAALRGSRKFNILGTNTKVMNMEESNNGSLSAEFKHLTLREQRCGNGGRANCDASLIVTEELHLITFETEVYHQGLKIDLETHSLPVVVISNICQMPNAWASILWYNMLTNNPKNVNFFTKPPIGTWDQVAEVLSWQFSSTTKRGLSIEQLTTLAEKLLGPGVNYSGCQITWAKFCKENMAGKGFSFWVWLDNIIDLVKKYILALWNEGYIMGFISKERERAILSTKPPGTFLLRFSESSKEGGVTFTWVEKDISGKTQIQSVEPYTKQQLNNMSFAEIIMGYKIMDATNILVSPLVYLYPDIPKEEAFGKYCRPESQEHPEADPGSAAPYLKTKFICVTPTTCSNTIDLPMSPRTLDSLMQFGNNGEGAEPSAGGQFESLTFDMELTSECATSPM

Target: T1, exportin 7 (endogenous, human U251 cells) (human) (UniProt Q9UIA9)
T1 sequence (looked up): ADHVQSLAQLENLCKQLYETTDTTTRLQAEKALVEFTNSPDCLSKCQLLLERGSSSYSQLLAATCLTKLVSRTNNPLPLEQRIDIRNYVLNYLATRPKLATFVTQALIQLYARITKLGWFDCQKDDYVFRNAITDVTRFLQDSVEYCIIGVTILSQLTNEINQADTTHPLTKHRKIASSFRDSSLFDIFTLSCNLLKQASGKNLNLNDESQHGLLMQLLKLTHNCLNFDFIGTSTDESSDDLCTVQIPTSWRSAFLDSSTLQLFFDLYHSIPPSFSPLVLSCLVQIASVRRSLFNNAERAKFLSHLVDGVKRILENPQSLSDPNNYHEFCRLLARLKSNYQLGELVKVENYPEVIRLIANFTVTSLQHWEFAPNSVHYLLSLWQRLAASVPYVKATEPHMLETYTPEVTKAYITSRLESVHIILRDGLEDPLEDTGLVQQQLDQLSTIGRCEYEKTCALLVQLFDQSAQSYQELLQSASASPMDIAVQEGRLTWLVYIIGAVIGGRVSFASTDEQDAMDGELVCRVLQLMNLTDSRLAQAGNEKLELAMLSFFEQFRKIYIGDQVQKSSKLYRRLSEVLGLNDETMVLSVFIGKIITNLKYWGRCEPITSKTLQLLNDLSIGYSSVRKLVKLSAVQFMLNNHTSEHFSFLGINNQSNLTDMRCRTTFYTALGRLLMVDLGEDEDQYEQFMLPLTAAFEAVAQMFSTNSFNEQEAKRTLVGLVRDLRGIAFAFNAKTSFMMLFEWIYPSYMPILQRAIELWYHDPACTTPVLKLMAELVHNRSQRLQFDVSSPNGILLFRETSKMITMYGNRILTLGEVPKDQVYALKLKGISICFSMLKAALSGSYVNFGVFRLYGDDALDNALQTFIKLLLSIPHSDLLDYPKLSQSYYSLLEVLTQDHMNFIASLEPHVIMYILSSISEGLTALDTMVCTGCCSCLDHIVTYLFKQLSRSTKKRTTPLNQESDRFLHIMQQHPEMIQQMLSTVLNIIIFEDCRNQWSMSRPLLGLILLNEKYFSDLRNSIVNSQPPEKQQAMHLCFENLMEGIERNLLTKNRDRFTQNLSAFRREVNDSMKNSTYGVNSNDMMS
Test: co-precipitation from whole cell lysates of U251 cells overexpressing STAT3 (wild type lane of FIG. 2D)

binding: binds
Substance: STAT3 overexpressed in U251 human tumor cells (from UniProt P40763 2-770)
